In paper doi:10.1101/788778:
These are yes or no findings as the source states them, for the method shown. Binding seen in cells or lysates may run through a third protein. Some entries that bind do so weakly or less than the wild type.

By UniProt entry, the sequences of proteins in these tests, tags left out. Where a name states a change or a piece, a line headed by the entry shows the natural chain unless it says otherwise.
UniProt O14744: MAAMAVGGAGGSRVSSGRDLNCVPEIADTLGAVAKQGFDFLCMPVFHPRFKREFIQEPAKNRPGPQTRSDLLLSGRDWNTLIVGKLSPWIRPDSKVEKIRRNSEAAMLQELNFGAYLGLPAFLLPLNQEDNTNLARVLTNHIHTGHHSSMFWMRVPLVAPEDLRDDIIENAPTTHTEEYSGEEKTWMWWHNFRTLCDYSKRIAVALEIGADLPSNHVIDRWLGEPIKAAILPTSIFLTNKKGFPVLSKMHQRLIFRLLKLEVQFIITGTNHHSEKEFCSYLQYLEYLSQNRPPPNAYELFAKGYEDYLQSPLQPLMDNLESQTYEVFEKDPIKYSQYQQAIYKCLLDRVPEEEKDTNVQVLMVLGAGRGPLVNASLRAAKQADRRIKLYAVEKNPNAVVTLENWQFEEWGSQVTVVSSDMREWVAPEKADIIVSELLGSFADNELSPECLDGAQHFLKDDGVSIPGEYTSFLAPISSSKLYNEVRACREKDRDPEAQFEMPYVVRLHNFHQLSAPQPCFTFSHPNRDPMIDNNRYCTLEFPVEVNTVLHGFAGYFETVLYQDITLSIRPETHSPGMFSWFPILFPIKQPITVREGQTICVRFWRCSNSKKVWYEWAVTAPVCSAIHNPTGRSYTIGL
UniProt Q16637: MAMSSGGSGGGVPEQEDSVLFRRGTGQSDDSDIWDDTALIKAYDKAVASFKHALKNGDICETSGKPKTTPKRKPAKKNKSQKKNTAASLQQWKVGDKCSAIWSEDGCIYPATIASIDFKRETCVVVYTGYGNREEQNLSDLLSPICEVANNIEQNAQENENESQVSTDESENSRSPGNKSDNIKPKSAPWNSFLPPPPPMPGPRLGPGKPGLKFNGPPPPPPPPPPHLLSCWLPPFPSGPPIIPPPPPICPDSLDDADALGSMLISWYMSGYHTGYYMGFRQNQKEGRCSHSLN
UniProt Q7Z333: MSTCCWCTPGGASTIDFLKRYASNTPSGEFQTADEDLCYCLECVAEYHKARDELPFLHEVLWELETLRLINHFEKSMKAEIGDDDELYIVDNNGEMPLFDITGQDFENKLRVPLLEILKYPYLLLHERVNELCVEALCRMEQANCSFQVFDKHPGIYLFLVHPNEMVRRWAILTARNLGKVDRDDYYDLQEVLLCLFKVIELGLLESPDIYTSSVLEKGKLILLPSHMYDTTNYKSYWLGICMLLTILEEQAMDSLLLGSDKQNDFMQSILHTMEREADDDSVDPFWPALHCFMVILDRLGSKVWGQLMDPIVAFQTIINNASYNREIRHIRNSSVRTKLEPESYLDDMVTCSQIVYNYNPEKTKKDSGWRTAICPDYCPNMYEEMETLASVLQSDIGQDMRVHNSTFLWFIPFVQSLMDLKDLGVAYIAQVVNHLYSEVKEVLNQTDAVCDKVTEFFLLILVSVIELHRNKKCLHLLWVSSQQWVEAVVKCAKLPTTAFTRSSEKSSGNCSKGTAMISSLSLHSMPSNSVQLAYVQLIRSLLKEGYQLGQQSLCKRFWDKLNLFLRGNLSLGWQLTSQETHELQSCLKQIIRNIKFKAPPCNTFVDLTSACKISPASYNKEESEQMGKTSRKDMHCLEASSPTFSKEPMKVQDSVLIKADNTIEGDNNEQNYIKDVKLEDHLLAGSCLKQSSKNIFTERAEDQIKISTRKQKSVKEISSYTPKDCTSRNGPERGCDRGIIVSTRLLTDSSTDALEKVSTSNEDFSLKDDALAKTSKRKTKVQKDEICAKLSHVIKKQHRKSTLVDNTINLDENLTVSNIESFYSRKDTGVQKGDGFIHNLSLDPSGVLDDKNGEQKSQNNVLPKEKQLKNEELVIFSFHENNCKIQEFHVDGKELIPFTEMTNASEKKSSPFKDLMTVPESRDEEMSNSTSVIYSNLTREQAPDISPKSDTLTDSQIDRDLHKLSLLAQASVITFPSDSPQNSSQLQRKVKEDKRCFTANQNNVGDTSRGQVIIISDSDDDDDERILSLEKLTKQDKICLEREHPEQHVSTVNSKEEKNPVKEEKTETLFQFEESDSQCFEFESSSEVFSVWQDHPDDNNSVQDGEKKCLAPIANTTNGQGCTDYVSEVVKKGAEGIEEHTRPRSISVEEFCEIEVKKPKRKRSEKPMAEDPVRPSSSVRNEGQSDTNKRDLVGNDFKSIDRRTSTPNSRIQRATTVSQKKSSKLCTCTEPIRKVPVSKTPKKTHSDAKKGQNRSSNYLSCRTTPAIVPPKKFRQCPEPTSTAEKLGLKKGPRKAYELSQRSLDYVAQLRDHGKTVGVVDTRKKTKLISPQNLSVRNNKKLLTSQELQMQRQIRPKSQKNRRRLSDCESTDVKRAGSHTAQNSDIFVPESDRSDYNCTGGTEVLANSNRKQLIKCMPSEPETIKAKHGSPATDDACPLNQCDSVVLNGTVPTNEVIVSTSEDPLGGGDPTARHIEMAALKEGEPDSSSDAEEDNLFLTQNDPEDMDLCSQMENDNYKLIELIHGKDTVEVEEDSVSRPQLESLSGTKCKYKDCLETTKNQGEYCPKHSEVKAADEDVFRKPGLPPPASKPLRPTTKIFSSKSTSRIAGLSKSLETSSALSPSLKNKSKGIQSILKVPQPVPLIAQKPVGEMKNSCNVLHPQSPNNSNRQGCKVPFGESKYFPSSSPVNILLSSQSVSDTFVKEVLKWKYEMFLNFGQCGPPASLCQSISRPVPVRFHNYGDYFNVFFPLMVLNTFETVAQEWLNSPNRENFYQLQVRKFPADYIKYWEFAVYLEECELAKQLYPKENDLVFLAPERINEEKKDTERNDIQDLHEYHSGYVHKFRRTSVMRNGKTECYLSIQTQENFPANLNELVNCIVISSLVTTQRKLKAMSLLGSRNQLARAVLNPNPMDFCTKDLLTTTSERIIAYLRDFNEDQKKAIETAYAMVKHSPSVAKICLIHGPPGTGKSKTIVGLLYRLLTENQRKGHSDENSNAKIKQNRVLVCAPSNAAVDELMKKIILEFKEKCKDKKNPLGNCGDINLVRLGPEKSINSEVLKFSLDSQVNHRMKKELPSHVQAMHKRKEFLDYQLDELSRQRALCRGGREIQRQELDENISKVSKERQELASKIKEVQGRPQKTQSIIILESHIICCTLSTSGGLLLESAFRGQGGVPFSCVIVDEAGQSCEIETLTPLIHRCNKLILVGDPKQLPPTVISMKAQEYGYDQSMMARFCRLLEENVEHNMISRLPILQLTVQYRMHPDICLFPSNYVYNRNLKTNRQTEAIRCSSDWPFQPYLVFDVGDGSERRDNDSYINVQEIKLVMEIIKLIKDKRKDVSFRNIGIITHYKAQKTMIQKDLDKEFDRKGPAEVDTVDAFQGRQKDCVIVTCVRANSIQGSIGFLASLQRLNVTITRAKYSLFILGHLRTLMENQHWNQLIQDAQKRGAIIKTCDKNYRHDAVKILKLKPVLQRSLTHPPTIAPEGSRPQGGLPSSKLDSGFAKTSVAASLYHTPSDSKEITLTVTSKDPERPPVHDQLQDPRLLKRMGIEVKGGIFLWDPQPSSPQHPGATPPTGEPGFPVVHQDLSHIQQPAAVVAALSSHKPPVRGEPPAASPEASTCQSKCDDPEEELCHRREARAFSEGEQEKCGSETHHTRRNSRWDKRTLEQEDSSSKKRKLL
UniProt Q13148: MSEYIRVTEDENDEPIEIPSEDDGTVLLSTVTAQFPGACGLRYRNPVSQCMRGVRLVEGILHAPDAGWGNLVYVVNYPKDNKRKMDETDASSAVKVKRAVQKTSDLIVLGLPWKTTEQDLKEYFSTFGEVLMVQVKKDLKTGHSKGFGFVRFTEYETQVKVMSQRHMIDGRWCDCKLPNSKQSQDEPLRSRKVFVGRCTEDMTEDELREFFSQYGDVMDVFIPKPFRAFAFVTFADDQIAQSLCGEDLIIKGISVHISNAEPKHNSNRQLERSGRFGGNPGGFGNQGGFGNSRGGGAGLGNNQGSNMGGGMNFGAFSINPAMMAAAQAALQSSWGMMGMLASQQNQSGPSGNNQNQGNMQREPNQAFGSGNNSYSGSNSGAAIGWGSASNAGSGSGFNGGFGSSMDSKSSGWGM
UniProt P35637: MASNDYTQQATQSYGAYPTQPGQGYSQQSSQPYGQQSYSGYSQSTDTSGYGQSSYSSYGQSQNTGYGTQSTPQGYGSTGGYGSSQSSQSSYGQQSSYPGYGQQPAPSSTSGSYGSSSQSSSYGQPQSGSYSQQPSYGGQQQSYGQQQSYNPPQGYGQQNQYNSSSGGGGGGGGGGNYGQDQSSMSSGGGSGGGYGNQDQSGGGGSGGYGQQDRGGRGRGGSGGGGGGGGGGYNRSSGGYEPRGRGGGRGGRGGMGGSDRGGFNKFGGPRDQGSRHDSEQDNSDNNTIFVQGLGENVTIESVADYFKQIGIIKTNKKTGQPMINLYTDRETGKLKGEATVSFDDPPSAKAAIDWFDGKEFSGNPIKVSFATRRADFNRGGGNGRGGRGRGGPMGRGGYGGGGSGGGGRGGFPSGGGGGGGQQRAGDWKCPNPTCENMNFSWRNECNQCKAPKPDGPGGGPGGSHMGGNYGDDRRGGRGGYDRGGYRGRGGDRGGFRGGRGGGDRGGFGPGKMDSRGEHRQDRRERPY

Tests used:
Assay in all cases: co-IP
[1] = molecular target: PRMT5 (human (endogenous in HEK293)) (UniProt O14744)
[2] = molecular target: SMN (human (endogenous in HEK293)) (UniProt Q16637)
[3] = molecular target: Senataxin (SETX) (human (endogenous in HEK293)) (UniProt Q7Z333)
[4] = molecular target: TDP-43 (TARDBP) (human (endogenous in HEK293 and Raji)) (UniProt Q13148)
[5] = molecular target: T1, XRN2 (human (endogenous in HEK293)) (UniProt Q9H0D6)
T1 sequence: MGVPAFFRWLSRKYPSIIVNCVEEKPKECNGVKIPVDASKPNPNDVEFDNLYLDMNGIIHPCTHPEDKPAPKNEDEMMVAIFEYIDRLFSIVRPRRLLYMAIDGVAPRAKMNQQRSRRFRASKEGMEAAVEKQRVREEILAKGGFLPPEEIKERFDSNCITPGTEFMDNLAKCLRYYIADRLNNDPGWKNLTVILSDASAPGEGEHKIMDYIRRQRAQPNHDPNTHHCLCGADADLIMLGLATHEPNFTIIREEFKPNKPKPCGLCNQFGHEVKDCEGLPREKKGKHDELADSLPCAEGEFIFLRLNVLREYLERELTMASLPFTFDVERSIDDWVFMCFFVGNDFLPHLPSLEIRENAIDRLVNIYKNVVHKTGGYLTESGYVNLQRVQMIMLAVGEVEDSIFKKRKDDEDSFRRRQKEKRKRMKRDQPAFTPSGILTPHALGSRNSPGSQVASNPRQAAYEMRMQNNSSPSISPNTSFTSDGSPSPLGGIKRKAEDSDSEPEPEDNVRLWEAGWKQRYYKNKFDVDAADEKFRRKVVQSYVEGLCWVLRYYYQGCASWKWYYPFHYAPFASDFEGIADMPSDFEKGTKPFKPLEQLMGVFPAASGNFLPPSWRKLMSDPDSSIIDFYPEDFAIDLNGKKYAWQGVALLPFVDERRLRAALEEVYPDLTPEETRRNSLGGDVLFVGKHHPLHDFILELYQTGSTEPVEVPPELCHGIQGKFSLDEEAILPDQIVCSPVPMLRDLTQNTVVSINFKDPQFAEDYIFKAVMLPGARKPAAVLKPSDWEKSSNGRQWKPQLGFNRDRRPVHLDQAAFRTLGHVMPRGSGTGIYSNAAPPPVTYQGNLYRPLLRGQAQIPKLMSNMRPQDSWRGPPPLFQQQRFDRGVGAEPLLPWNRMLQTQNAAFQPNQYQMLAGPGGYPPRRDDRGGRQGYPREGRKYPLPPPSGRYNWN

binding [1] | binding [2] | binding [4] | binding [5] | Substance | binding [3]
binds | binds | binds | binds | FUS (from UniProt P35637 1-526) | binds
binds | – | – | binds | TDP-43 (TARDBP) (from UniProt Q13148-1 1-414) | –
binds | – | – | – | SMN (from UniProt Q16637 1-294) | –
binds | binds | – | binds | Senataxin (SETX) (from UniProt Q7Z333 1-2677) | –
